# The supplement of paper PMC10338343
# ± gives the standard deviation. The list shows a part of the results, in another mix than the full data. Many of these values have a large error.
# Tested on: MIWI (PIWIL1) piRISC loaded with Kctd7 piRNA (30 nt)
# Assay: pre-steady-state target cleavage rate (min^-1); MIWI and MILI are mouse PIWI proteins and EfPiwi is from a freshwater sponge; tags in brackets are library labels; higher = faster piRNA-guided slicing of the target
# Settings: guide: Kctd7 piRNA 5'p-UGUUAAUCUCUCAGAGAAGGUGACAGUGAU; auxiliary factor: 500 nM mouse GTSF1
# Summary of the method: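 Sequencing of uncleaved targets, normalised to depth and to weakly complementary targets, was the readout of this Cleave-'n-Seq assay. A transcribed, DNA-blocked target RNA library (0.1 nM) was mixed with 1 nM active affinity-purified piRISC carrying one synthetic guide, with or without 500 nM GTSF1 partner protein, in HEPES–potassium acetate buffer at 33 °C for 0–8 or 0–960 min. Three trials were pooled, k3 was capped at 0.0001 min^-1, and a burst-and-steady-state fit gave the pre-steady-state cleavage rate.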
row,Sequence,pre-steady-state target cleavage rate
1,UAGUGACAGACCUUCAGUGAGAGAUUAACA,0.00196 ± 0.0067
2,UAGUGACAGUGCAUCUCUGAGAGAUUAACA,0.000816 ± 0.0075
3,UAGUGACUCACCUUCUCUAGAGAGAUUAACA,0.000506 ± 0.018
4,UAGUGACACACCUUCUCUGUCAGAUUAACA,0.00228 ± 0.0046
5,UAGUGACAGUCCUUCUCUGAGCAGAUUAACA,0.00168 ± 0.0041
6,UACACUGUCACCUUGUCUGAGAGAUUAACA,0.355 ± 0.042
7,UAGACUGUCACCUUCUCUGAGACUUUAACA,0.00296 ± 0.0033
8,UUCAGUGUCACCUUCUCUGAGAGAUUUUGA,0.161 ± 0.043
9,UAGUGUGUGUGCUUCUCUGAGAGAUUAUGA,0.00181 ± 0.0053
10,UAGUGACUCACCUUCAGUGAGAGAUUUUGA,0.000481 ± 0.013
11,UAGUGACAGUCCUUCUCGGAGAGAUUAACA,0.00251 ± 0.0037
12,UAGUGACAGUCCUUCUCACAGAGAUUAUGA,0.000478 ± 0.018
13,UAGUGUGUCACCUUCAGAGAGAGAUUAAGA,0.00227 ± 0.0073
14,UUCACAGUCACCUUCUGUGAGAGAUUAACA,0.363 ± 0.035
15,UUCACUGUCACCUUCUCUGAGACUAAUUGA,0.00193 ± 0.0032
16,UUCACUGUGCACCUUCUCUGAGAGAUUAACA,0.606 ± 0.05
17,UAGUGUGUCACCUUCUCUGACAGAUAUUGA,0.00135 ± 0.0084
18,UAGUGACACACCAAGUCUGAGAGAUUAACA,0.00224 ± 0.0051
19,UAGACUGUCACCUUCUCUGAGGGAUUAACA,0.741 ± 0.051
20,UAGUGACAGUGGAAGAGACUGUCUUUAACA,0.000753 ± 0.01
21,UAGUCUGUCAGGAUCUCUGAGAGAUUAAGA,0.00328 ± 0.0033
22,UAGUGACAGACCUUCUCUGUGAGAAUAACA,0.0031 ± 0.0056
23,UACACUGUCAGGAUCUCUGAGAGAUAUUGA,0.000103 ± 0.035
24,UACACUGUCACCUUCUGACAGAGAUUAAGA,0.000464 ± 0.028

row,Sequence,pre-steady-state target cleavage rate
1,UAGUGACAGUGGAAGAGUGAGAGAUUCAACA,0.000103 ± 0.069
2,UAGUGAGUCACCAACUCUGAGAGAUUAUGA,0.00154 ± 0.0051
3,AUCACUGUCAGGAUCUCUGAGAGAUUAUGA,0.00135 ± 0.0055
4,AUCACUGUGUGCUUCUCUGAGAGAUUAUGA,0.00109 ± 0.0061
5,UAGUGACAGUGCUUCUCUGAAGAUUAACA,0.000116 ± 0.023
6,UAGUGACUCACCUUCUCUGAGACAUUAUGA,0.00302 ± 0.0035
7,UAGUGACAGUGGAAGAGAGACAGAUUAUCA,0.000264 ± 0.016
8,UACACUGUCACCUUCUCUGAGACUUAUUGA,0.00189 ± 0.006
9,UAGACUGUCACCUUCUCUGUGAGAUAUUGA,0.00204 ± 0.0037
10,UAGUGACUCUCCUUCUCUCAGAGAUUAACA,0.00165 ± 0.0035
11,UAGUGACAGUCCAUCUCUGUGAGAUUAACA,0.000787 ± 0.0077
12,UAGUCUGUCACCAUUCUCUGAGAGAUUAACA,0.601 ± 0.03
13,UAGUGACAGUGGAAGAGACUGUCAUUAACA,0.0014 ± 0.0075
14,UAGUGACUCACCUUCUCUGAGAGAUAUACA,0.143 ± 0.019
15,UAGUGACAGUGCUUCUCUGACUCAUUAAGA,0.00015 ± 0.022
16,UAGUGACAGUGGAACUCUGAGAGAUUAACCA,0.000115 ± 0.039
17,UAGUGACAGUCCUUCUCUGAGGAUUAACA,0.000871 ± 0.0035
18,UAGUGACAGUGGAAGAGAGAGAGAUUAUACA,0.000183 ± 0.036
19,UAGUGACAGUCCUUCUCUGAGAGAUAACA,0.000206 ± 0.012
20,UAGUGACAGUCCUUCUCUGACACAUUAACA,0.00037 ± 0.018
21,UAGACUGUCACCUUCUGAGAGAGAUUAUGA,0.00125 ± 0.0045
22,UAGUGACAGACCUUGUGUGAGAGAUUAACA,0.000653 ± 0.012
23,UAGUGUGUCACCUUCUCUCUGAGAUAUUGA,0.000926 ± 0.0097
24,UAGUGACAGACCUUCUGACAGAGAUUAACA,0.000324 ± 0.035

# Quoted at random: 2 entries already listed.
row,Sequence,pre-steady-state target cleavage rate
23,UAGUGUGUCACCUUCUCUCUGAGAUAUUGA,0.000926 ± 0.0097
4,UAGUGACACACCUUCUCUGUCAGAUUAACA,0.00228 ± 0.0046

# Next results:

row,Sequence,pre-steady-state target cleavage rate
1,UAGUGACAGUGCUUCUCUGAGAGAUUACACA,0.00159 ± 0.0041
2,UUCACUGUCACCUUCUCUGAGGGAUUAACA,0.51 ± 0.024
3,UAGUGACUCACCUUCUCUGUGUGAUUAACA,0.00321 ± 0.0041
4,UAGUGACAGUCCUUCACAGAGAGAUUAACA,0.00116 ± 0.0088
5,AUCACUGUCACUCUUCUCUGAGAGAUUAACA,0.53 ± 0.035
6,UAGUGACAGUGCUUCUCUGAGAGAUAAUCA,0.00028 ± 0.0069
7,UAGUGACAGUCCUACUCUGAGAGAUUUACA,0.00152 ± 0.005
8,UAGUGACAGUGCUUCUCUCGAGAGAUUAACA,0.00103 ± 0.0074
9,AUCACUGUCGCCUUCUCUGAGAGAUUAACA,0.819 ± 0.053
10,UAGUGACAGUGGAACUCUGACUCAUUAACA,0.000245 ± 0.021
11,UUCACUGUCACCUUCUCUGACUGAUUAUGA,0.0019 ± 0.0046
12,UAGUGAGUCACCUUCUCUGACAGAUAUUGA,0.00268 ± 0.0031
13,UAGUGACAGACCUUCUCUGAGAAUUAACA,0.000838 ± 0.013
14,UAGUGACAGUGGAACUCUGAGAGAUUAACA [g2:g16:cont:t1A],0.000175 ± 0.022
15,UAGUGACAGUGCUUCUCUGGAGAUUAACA,0.000722 ± 0.0069
16,UAGUGACAGUGGUAUCUCUGAGAGAUUAACA,0.000139 ± 0.025
17,UUCACUGUCACCUUCUCUGUGAGAUUAUCA,0.106 ± 0.025
18,UAGACUGUCGACCUUCUCUGAGAGAUUAACA,0.121 ± 0.013
19,UAGUGACAGACCUUCUCACUGAGAUUUUGA,0.000257 ± 0.053
20,UAGUGACACUGGUUCUCUGAGAGAUUAUGA,0.000599 ± 0.0086
21,UAGUGACAGUGGAACUCUGAGCGAUUAACA,0.0052 ± 0.007
22,UAGUGUGUCUGCUUCUCUGAGAGAUAUUGA,0.000495 ± 0.0064
23,UACACUGUCACGAUCUCUGAGAGAUUUUGA,0.00219 ± 0.0063

# A section from further up, for reference:
row,Sequence,pre-steady-state target cleavage rate
19,UAGUGACAGACCUUCUCACUGAGAUUUUGA,0.000257 ± 0.053
20,UAGUGACACUGGUUCUCUGAGAGAUUAUGA,0.000599 ± 0.0086
21,UAGUGACAGUGGAACUCUGAGCGAUUAACA,0.0052 ± 0.007
